Experimental data from PubChem BioAssay AID624297 (National Center for Advancing Translational Sciences (NCATS), 2012).
Hit rate of the full screen: of about 340,000 compounds, about 6,200 (1.8%) were called active. Inconclusive means that the source gave no clear call. Such entries were picked first, then a sample of the others. Calls come from the whole dose curve; as a rule, active = well fitted activation curve with a large enough effect; inconclusive = small, poorly fitted or top-dose-only effect; inactive = no such curve, though single readings can be large or run the other way. Potencies of inconclusive entries are doubtful fits and often do not repeat.

Test: A quantitative high throughput screen for small molecules that induce DNA re-replication in SW480 colon adenocarcinoma cells. For re-replication activation: % of control where 0% means no effect. Note: nearly all actives have a fitted effect of over 55% in size.
Settings: Hoechst DNA content imaging, 48 h; re-replication activation: at 46.1 µM (top of the series)
In short: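 Per well, 250 cells were exposed to pinned compound for 48 hr. Nuclear DNA was visualised with Hoechst (40 min, 37 C) and total object intensity recorded by fluorescence scanning.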
Potency is the fitted concentration of half-maximal effect.

**Q.** With `COc1cc2c(cc1NC(=O)c1cccc([N+](=O)[O-])c1C)oc1ccccc12` as the compound, how does the Potency read?
**A.** The Potency was inconclusive: 7.94 µM [activator, partial curve, poor fit].

**Q.** Which Potency does the source give for `CC(NC(=O)COc1ccccc1F)C1CC2CCC1C2` (stereo not given) here?
**A.** Its Potency is inconclusive: 29.1 µM [activator, single point].

**Q.** Which “re-replication activation” value does the source give for `CC(C)(C)c1cc2ncnc(N3CCCCC3)c2s1` here?
**A.** Its value is inactive: 3.51%.

**Q.** With `CC1(C)CC2CC(C)(CN2S(=O)(=O)c2ccc(C(=O)Nc3ccc(Cl)c(S(=O)(=O)N4CCOCC4)c3)cc2)C1` (stereo not given) as the compound, how does the “re-replication activation” value read?
**A.** Its value is inactive: 15.3%.

**Q.** For `COc1ccc(-c2nn(-c3ccccc3)cc2C(=O)Nc2nccs2)cc1`, which “re-replication activation” value is on record?
**A.** The value was inactive: -4.98%.

**Q.** For `CC(=O)c1sc(N/N=C\c2ccc(N(C)C)cc2)nc1C`, which Potency is on record?
**A.** The Potency was inconclusive: 18.4 µM [activator, single point].

**Q.** With `Cc1ccc(-n2c([C@@H]3C[C@H]3c3ccccc3)n[nH]c2=S)cc1` as the compound, how does the Potency read?
**A.** The Potency was inconclusive: 0.82 µM [activator, full curve, poor fit].

**Q.** For `Cc1nc(NC(=O)/C=C/c2ccco2)sc1C`, which Potency is on record?
**A.** The Potency was active: 8.2 µM.

**Q.** For `CCOC(=O)c1c(/N=C/c2cccc([N+](=O)[O-])c2O)sc(C)c1C`, which Potency is on record?
**A.** Its Potency is inconclusive: 11.6 µM [activator, partial curve, poor fit].

**Q.** For `O=C(Oc1ccc(Cl)c2cccnc12)c1cccnc1`, which Potency is on record?
**A.** The Potency was inconclusive: 20.6 µM [activator, single point].

**Q.** Which “re-replication activation” value does the source give for `NC(=S)N=Nc1c(O)n(Cc2ccccc2)c2ccccc12` here?
**A.** Its value is inactive: -6.83%.

**Q.** With `COc1ccc(CCN2C(=O)c3ccccc3NC2c2cc(Cl)c(O)c(OC)c2)cc1` (stereo not given) as the compound, how does the Potency read?
**A.** The Potency was active: 8.2 µM.

**Q.** Which “re-replication activation” value does the source give for `O=C(N/N=C/C=C/c1ccc([N+](=O)[O-])cc1)c1cccs1` here?
**A.** Its value is inactive: -1.45%.

**Q.** For `Cn1c(CCc2nc3ccccc3[nH]2)nnc1SCC#N`, which “re-replication activation” value is on record?
**A.** Its value is inactive: 1.21%.

**Q.** Which Potency does the source give for `CC(=O)Nc1ccc(S(=O)(=O)NCc2csc(C)n2)cc1` here?
**A.** The Potency was inconclusive: 32.6 µM [activator, partial curve, poor fit].

**Q.** With `CC(C)C1CC(CCNCc2ccc3c(c2)OCO3)(c2ccccc2)CCO1` (stereo not given) as the compound, how does the Potency read?
**A.** Its Potency is inconclusive: 29.1 µM [activator, single point].

**Q.** With `COc1cc(N=c2ssnc2Cl)c(OC)cc1Cl` as the compound, how does the Potency read?
**A.** Its Potency is inconclusive: 20.6 µM [activator, partial curve, poor fit].

**Q.** Which Potency does the source give for `Cc1cc(NC(=O)COC(=O)c2c(Cl)cccc2Cl)no1` here?
**A.** The Potency was inconclusive: 29.1 µM [activator, single point].

**Q.** With `COc1ccc(S(=O)(=O)Nc2ccccc2-c2nnn(CC(=O)Nc3ccccc3OC)n2)cc1` as the compound, how does the Potency read?
**A.** The Potency was inconclusive: 18.4 µM [activator, partial curve, poor fit].

**Q.** Which Potency does the source give for `CN(C)S(=O)(=O)c1cccc(C(=O)Nc2ccccc2[N+](=O)[O-])c1` here?
**A.** Its Potency is inconclusive: 2.59 µM [activator, full curve, poor fit].
